Measured values from publication doi:10.1101/870071 (bioRxiv, 2019).
Numbering of substitutions follows the chain as printed. These are yes or no findings as the source states them, for the method shown. For some assays here: In cells and extracts the contact can be indirect. Some entries that bind do so weakly or less than the wild type. For some assays here: Where a sequence is shown, tags or fusion partners need not be part of it.

The chains behind the UniProt entries cited, without tags or fusion partners. Where a name states a change or a piece, a line headed by the entry shows the natural chain unless it says otherwise. A line that says so, or that is headed by a name, gives the form on record, which may keep a tag or linker.
UniProt Q9UPT5: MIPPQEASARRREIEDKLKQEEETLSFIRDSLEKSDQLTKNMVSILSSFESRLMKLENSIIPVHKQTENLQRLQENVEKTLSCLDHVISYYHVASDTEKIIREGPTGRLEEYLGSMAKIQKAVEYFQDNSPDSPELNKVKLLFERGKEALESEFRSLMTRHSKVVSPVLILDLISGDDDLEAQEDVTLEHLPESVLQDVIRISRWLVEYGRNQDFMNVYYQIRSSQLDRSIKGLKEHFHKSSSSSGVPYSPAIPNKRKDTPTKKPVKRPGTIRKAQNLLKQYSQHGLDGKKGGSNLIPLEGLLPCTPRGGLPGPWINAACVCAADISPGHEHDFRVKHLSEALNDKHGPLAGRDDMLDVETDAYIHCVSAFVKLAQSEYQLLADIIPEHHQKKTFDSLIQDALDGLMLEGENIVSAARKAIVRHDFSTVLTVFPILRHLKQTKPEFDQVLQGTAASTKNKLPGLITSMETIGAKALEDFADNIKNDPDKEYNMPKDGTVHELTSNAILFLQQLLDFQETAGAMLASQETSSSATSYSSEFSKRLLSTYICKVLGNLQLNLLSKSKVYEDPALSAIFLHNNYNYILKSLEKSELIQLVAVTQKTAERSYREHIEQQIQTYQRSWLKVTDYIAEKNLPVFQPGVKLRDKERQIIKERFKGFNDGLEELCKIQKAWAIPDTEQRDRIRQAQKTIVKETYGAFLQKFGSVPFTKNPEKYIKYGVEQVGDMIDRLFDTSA
UniProt P19658: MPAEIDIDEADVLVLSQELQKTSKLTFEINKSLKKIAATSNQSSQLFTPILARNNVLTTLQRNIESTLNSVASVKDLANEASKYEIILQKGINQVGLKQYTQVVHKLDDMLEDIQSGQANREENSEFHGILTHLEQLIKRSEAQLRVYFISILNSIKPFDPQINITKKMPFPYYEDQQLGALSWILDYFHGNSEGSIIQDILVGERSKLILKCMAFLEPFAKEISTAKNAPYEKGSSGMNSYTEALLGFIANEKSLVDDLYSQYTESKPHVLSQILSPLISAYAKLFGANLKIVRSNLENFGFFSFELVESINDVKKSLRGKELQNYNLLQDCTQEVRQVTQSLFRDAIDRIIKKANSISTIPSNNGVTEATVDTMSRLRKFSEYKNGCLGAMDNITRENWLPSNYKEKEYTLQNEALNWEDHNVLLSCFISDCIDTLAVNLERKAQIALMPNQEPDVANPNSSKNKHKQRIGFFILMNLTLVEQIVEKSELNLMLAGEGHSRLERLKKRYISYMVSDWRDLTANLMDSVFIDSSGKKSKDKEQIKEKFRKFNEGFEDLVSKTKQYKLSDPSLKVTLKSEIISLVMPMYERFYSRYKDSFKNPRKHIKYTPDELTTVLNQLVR
full length endogenous GIV (Q3V6T2-3, form named): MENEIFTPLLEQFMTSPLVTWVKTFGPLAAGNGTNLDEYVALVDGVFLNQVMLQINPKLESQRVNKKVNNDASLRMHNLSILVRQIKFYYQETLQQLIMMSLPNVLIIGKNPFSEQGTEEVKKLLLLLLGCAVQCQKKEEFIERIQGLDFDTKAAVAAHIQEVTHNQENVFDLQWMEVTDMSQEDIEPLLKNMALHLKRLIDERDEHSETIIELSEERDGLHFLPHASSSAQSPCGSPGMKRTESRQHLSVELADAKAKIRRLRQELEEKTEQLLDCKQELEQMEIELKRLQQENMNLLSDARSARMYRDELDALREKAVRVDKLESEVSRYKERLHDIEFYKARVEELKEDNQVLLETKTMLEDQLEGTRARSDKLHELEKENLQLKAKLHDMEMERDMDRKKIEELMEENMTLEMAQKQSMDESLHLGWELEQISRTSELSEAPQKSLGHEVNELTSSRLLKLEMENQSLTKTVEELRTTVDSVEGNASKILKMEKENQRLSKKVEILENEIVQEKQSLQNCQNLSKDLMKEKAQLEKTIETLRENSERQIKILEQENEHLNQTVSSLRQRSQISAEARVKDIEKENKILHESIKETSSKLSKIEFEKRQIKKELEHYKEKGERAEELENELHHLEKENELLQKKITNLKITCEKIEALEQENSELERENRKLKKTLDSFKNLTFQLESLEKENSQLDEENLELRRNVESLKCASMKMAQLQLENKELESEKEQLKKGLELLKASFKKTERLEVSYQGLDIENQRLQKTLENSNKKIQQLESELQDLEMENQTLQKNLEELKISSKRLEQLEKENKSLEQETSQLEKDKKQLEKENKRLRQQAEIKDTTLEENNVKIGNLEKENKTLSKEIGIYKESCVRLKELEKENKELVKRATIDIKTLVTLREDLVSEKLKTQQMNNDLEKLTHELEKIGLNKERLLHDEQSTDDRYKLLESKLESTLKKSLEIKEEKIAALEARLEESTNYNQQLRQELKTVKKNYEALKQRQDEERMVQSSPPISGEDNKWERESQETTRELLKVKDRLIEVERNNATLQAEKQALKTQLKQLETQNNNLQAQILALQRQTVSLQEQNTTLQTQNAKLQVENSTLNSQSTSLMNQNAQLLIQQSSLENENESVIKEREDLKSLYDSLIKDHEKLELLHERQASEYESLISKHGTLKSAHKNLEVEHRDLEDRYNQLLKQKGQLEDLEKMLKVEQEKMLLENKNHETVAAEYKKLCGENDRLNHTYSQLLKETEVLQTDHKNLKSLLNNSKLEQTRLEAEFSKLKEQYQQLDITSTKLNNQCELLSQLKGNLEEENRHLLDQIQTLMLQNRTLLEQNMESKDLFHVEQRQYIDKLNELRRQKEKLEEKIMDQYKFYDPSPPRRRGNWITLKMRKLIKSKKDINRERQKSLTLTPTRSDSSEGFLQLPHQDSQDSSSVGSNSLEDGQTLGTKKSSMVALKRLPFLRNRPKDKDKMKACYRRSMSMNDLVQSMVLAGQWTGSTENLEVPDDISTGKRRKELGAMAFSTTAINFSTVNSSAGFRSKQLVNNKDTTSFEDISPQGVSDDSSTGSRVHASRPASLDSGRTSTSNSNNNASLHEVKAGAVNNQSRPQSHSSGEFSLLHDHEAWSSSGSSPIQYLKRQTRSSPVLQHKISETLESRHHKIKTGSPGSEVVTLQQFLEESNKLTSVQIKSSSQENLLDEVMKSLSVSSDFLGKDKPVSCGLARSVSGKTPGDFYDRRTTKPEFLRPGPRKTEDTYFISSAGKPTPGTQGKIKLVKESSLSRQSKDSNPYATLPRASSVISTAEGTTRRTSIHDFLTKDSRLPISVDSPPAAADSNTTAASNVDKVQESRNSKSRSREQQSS

B1: His-Bem1p (natural protein, yeast, UniProt P29366 1-551, looked up)
chain: MLKNFKLSKRDSNGSKGRITSADISTPSHDNGSVIKHIKTVPVRYLSSSSTPVKSQRDSSPKNRHNSKDITSPEKVIKAKYSYQAQTSKELSFMEGEFFYVSGDEKDWYKASNPSTGKEGVVPKTYFEVFDRTKPSSVNGSNSSSRKVTNDSLNMGSLYAIVLYDFKAEKADELTTYVGENLFICAHHNCEWFIAKPIGRLGGPGLVPVGFVSIIDIATGYATGNDVIEDIKSVNLPTVQEWKSNIARYKASNISLGSVEQQQQQSITKPQNKSAKLVDGELLVKASVESFGLEDEKYWFLVCCELSNGKTRQLKRYYQDFYDLQVQLLDAFPAEAGKLRDAGGQWSKRIMPYIPGPVPYVTNSITKKRKEDLNIYVADLVNLPDYISRSEMVHSLFVVLNNGFDREFERDENQNNIKTLQENDTATFATASQTSNFASTNQDNTLTGEDLKLNKKLSDLSLSGSKQAPAQSTSGLKTTKIKFYYKDDIFALMLKGDTTYKELRSKIAPRIDTDNFKLQTKLFDGSGEEIKTDSQVSNIIQAKLKISVHDI

Assays:
Test in all cases: pull-down
GST-Bem1p F321A (yeast) = target: T1, GST-Bem1p F321A (yeast) (UniProt P29366)
T1 sequence: B1 chain with F321A

GST-Bem1p WT (yeast) = target: T2, GST-Bem1p WT (yeast) (UniProt P29366)
T2 sequence: B1 chain

GST-hExo70 (human Exo70) = GST-hExo70 (human Exo70) (human, UniProt Q9UPT5 1-735)
GST-Exo70p (yeast Exo70) = GST-Exo70p (yeast Exo70) (yeast, UniProt P19658 1-623)

Molecule	binding (GST-Bem1p F321A (yeast))	binding (GST-Bem1p WT (yeast))	binding (GST-hExo70 (human Exo70))	binding (GST-Exo70p (yeast Exo70))
His-Exo70p (from UniProt P19658 1-623)	no binding	binds	–	–
full length endogenous GIV (from UniProt Q3V6T2-3 1-1870)	–	–	binds	binds
B1	–	–	binds	–
